The results in this text go back to article PMC3245299.

The chains behind the UniProt entries cited, without tags or fusion partners. Where a name states a change or a piece, a line headed by the entry shows the natural chain unless it says otherwise. A line that says so, or that is headed by a name, gives the form on record, which may keep a tag or linker. Residues count along the entry.
UniProt P0C6J7, residues 229-262: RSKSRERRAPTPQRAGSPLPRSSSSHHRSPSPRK
UniProt P06748: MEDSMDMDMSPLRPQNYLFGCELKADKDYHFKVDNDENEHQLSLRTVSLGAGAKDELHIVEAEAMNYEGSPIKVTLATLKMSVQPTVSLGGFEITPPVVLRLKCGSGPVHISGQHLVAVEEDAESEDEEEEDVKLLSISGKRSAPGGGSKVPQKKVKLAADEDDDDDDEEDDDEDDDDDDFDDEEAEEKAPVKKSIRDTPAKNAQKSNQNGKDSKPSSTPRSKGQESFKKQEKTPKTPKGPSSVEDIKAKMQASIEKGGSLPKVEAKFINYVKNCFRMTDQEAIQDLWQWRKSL
I2PP2A (SET, Taf-1β), endogenous in HEK293T cells (Q01105-2, form named): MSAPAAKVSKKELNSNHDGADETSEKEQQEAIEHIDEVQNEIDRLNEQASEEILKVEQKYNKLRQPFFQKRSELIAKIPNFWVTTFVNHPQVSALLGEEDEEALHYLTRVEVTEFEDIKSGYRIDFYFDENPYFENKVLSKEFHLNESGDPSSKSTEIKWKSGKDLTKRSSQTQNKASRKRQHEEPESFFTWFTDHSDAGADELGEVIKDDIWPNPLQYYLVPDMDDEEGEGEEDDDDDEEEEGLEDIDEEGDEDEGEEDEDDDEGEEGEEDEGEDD

These are yes or no findings as the source states them, for the method shown. In cells and extracts the contact can be indirect. Here binding means that the protein was enriched with, or labelled near, the bait; the list need not be complete. A no says only that the protein was not detected with the bait.

This test deals with GST-DCC229 (GST fused to DHBc CTD residues 229-262, WT), expressed in HEK293T (duck hepatitis B virus (DHBV)) (UniProt P0C6J7). The test can be described thus: affinity purification with mass spectrometry; GST-DCC fusion proteins expressed in HEK293T, purified from RNase A-treated lysates on GSH affinity resin; co-purifying bands seen by Coomassie staining, excised, trypsinised in gel and identified by mass spectrometry (Fig. 4).

For the substance “B23 (nucleophosmin, NPM1), endogenous in HEK293T cells (from UniProt P06748 1-294)”, the binding result was “no binding”.
In the case of “I2PP2A (SET, Taf-1β), endogenous in HEK293T cells (from UniProt Q01105-2 1-277)” it was “no binding”.
